We go through 54 sequences from publication PMC7819943, “Rice protein-binding microarrays: a tool to detect cis-acting elements near promoter regions in rice”.

This is one part of the list.

This experiment deals with T1, OsSMF1 (Oryza sativa, UniProt Q6ZLB0 1-436).
T1 sequence: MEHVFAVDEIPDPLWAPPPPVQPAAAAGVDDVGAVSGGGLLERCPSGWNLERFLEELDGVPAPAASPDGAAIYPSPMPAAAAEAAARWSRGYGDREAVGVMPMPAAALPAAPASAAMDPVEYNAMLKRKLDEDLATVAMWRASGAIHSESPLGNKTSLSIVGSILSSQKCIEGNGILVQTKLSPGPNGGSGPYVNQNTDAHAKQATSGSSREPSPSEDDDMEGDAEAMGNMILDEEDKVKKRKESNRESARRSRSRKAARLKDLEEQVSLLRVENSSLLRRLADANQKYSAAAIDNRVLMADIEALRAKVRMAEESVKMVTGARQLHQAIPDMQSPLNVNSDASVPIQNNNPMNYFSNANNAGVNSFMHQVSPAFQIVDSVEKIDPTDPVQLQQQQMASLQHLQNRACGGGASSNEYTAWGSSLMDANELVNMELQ
As to the kind of experiment: protein-binding microarray (RPBM); PBS, 2% BSA, 51.3 ng/ul salmon testes DNA, 50 uM zinc acetate, 200 nM TF, 25 C, 1 h; high values mean tight binding. To be noted: protein: recombinant; tags: N-terminal polyhistidine and DsRed monomer fusion (pET32a); chain copies: 2; label: CyDye5-dUTP incorporated in the synthesized complementary strand; 3' TTTTT single-stranded linker to array surface; dsDNA, one strand shown. An outline of the steps: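 Polyhistidine-tagged DsRed fusions of transcription factors, joined at the N-terminus, were expressed in E. coli BL21-CodonPlus and isolated on Ni–NTA. They were incubated at 200 nM for 1 h at 25 °C on a custom Agilent array, double-stranded and BSA-blocked, in PBS with 2% BSA, salmon testes DNA and 50 µM zinc acetate. The binding signal is per-feature fluorescence intensity (arbitrary units) read on an Axon 4000B scanner after washing.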
As to “CTCGCGGCGCTCGCCATGGCGTGGAGACGTGGGACGTCGCCGGAGTCACCTAGTGCAG”, the binding signal is 3470 fluorescence intensity (a.u.).

As to “ATCCAATCCATGGACCGTCTCGTCCTTTGCTTGGGTTGCTCGGAGTCACCTAGTGCAG”, the binding signal is 28800 fluorescence intensity (a.u.).

“AATAACCATGTATTGCAATTGACTCATAATAATACATGACCGGAGTCACCTAGTGCAG”: the binding signal was 30000 fluorescence intensity (a.u.).

Take “GGGACTAAAGATGCTCAGCCGGCCACGTGGCTGAGCCATCCGGAGTCACCTAGTGCAG”: the binding signal is 12800 fluorescence intensity (a.u.).

As to “AAACCTATGACAATCAACCTTTTGACTGTCATACTAGCTCCGGAGTCACCTAGTGCAG”, the binding signal was 3920 fluorescence intensity (a.u.).

Consider “GTTAGTCCACTCAATACACTCATTGCCTCATCATCGTGTCCGGAGTCACCTAGTGCAG”, for which the binding signal is 6330 fluorescence intensity (a.u.).

With “GTCCTACTAATATGTGGGCCACTAGTCATCGTCATGAAGTCGGAGTCACCTAGTGCAG”, the binding signal was 3500 fluorescence intensity (a.u.).

Turning to “AGGGGAGGAGGCATGAGAGGATGGTGACGTTGCTCCGGCCCGGAGTCACCTAGTGCAG”, the binding signal is 6230 fluorescence intensity (a.u.).

As for “CGGTAGGCCTCGTTGGAGCGGCGGGTTGGCCAGCGCGTGGCGGAGTCACCTAGTGCAG”, the binding signal was 3160 fluorescence intensity (a.u.).

With “TCAGTGTGATAAATGTCACATTGATGTGGCTCAAGATGTGCGGAGTCACCTAGTGCAG”, the binding signal was 5580 fluorescence intensity (a.u.).

On to “GAGTCCATGACCAGCGTCAATCGCCTGGCGCGCCAACTGTCGGAGTCACCTAGTGCAG”, for which the binding signal was 3680 fluorescence intensity (a.u.).

With “GCGACCAGTTCGGTTTACTGTTCTGAATTTCTTCGCGGAACGGAGTCACCTAGTGCAG”, the binding signal was 3940 fluorescence intensity (a.u.).

Regarding “TGGCCCAATCGTGTGCTGAACCCGTGCCGCGTGCGTGCGACGGAGTCACCTAGTGCAG”, the binding signal is 4160 fluorescence intensity (a.u.).

Take “GCTTCAGCGTCCGCAATATGGGCCACTTTAATTGGTCCTGCGGAGTCACCTAGTGCAG”: the binding signal was 4490 fluorescence intensity (a.u.).

As for “AAACTTACACCCATGATACATTACAAGTTTGGTTTTCTAACGGAGTCACCTAGTGCAG”, the binding signal was 29800 fluorescence intensity (a.u.).

In the case of “TTCATTGTCACCCTAGATGATGTCTTATTCTTGTCGATGTCGGAGTCACCTAGTGCAG”, the binding signal was 3460 fluorescence intensity (a.u.).

Take “CACCACCATCGCCGCCGTTATCCACTTCATCACCGGCCACCGGAGTCACCTAGTGCAG”: the binding signal was 3280 fluorescence intensity (a.u.).

For the sequence “ATAACCTAATATAAAGTTCGCTCATATGAAAATTTAAACTCGGAGTCACCTAGTGCAG”, the binding signal was 51600 fluorescence intensity (a.u.).

In the case of “TAGAATGGGTCATATCTAAACTACACTTATGGTGACACATCGGAGTCACCTAGTGCAG”, the binding signal is 4130 fluorescence intensity (a.u.).

“TAACCGTCAGCCCCGTCCTGTTCCCTAACAAATCCACCACCGGAGTCACCTAGTGCAG”: the binding signal is 3530 fluorescence intensity (a.u.).

In the case of “AACACCTGCCATGCCATGCCACGTACGTGGAGTGGCCACCCGGAGTCACCTAGTGCAG”, the binding signal was 15400 fluorescence intensity (a.u.).

On to “ATATATAAATTTTAGTCATCAGATTTTCTATCATTACAGTCGGAGTCACCTAGTGCAG”, for which the binding signal is 3860 fluorescence intensity (a.u.).

For “CTGCCTCTGCCGCCGTCACGCTGAACGCGCCTCACCGGCTCGGAGTCACCTAGTGCAG”, the binding signal is 3400 fluorescence intensity (a.u.).

As to “CATCATAGATCGTTCACACGTCTCAACATCCCAAATTATCCGGAGTCACCTAGTGCAG”, the binding signal is 3290 fluorescence intensity (a.u.).

As for “CTAACTAAGCCGATCTGCATCTTGAAATCTGCTGCACCTTCGGAGTCACCTAGTGCAG”, the binding signal was 7090 fluorescence intensity (a.u.).

“GTCCATCGGATCGGGAGCGCGCGGCGAGGCAGGCGGGGTCCGGAGTCACCTAGTGCAG”: the binding signal is 44300 fluorescence intensity (a.u.).

With “ATGAAAGGTGTACATGATGTGTTCCATATTTCCATGCTGACGGAGTCACCTAGTGCAG”, the binding signal was 4570 fluorescence intensity (a.u.).

“TGGGCGGGTGTGTCGGATGTTGACGATGGCGAAGGAGAGGCGGAGTCACCTAGTGCAG”: the binding signal was 5230 fluorescence intensity (a.u.).

Consider “ACAGGGTCGCAGTGATGAGCTGCCATCTTTGTACTGTTCCCGGAGTCACCTAGTGCAG”, for which the binding signal is 3950 fluorescence intensity (a.u.).

Turning to “ACCCTTGAAGTGGTATGAATGCCATTTTAGTTATTTCGGGCGGAGTCACCTAGTGCAG”, the binding signal was 6250 fluorescence intensity (a.u.).

For the sequence “TCTGCTGATGATCTCTCTCTCTCTCTGTTTCAAAGCTGATCGGAGTCACCTAGTGCAG”, the binding signal is 44700 fluorescence intensity (a.u.).

Take “CGAAACAACCAGTTCCTTCCCACGTCGCACACTCGCACCCCGGAGTCACCTAGTGCAG”: the binding signal was 4650 fluorescence intensity (a.u.).

Consider “AGCTAACAAGTTGAGGGACCTTGCGTGTACTCTTTCCTACCGGAGTCACCTAGTGCAG”, for which the binding signal is 4780 fluorescence intensity (a.u.).

Turning to “CTCGACACCTCACCCACCTCTCCCATTCTCTCTCCTTCTCCGGAGTCACCTAGTGCAG”, the binding signal is 5370 fluorescence intensity (a.u.).

With “CAGGGTCAAAGATGCCACGTGGGACAATCTGCCTCCAAAACGGAGTCACCTAGTGCAG”, the binding signal is 18500 fluorescence intensity (a.u.).

For the sequence “ATCTTGTACATTGCACAAATTGACTATTGGTTTGTAGGAGCGGAGTCACCTAGTGCAG”, the binding signal was 3220 fluorescence intensity (a.u.).

Regarding “GTCGAATCCCGGAGCCCTCGCCATCGCCCACGCCCTCGCGCGGAGTCACCTAGTGCAG”, the binding signal was 3200 fluorescence intensity (a.u.).

Turning to “GAAAGCGCTGCAACTGCAAGGTTTATAAGGCATGAATCTGCGGAGTCACCTAGTGCAG”, the binding signal was 3570 fluorescence intensity (a.u.).

As to “AAACACTCATGGCCGACACTGATAGAACACGTCAAACTGTCGGAGTCACCTAGTGCAG”, the binding signal was 3630 fluorescence intensity (a.u.).

As for “TGGCTTTGTTAATCTCAAGATATGCTGATGTAAGCGTGTTCGGAGTCACCTAGTGCAG”, the binding signal is 7340 fluorescence intensity (a.u.).

Regarding “CCCTCAAGGGCTCAAAACACTCAAACAGTTCTACATATATCGGAGTCACCTAGTGCAG”, the binding signal was 57600 fluorescence intensity (a.u.).

In the case of “AAACCCCATCCCGAACATGGTTAAATGTCAATTTTCTCCACGGAGTCACCTAGTGCAG”, the binding signal is 11700 fluorescence intensity (a.u.).

In the case of “ATGCACAAGTTTAAAATAGCTATAATATGTTGCGTGGACACGGAGTCACCTAGTGCAG”, the binding signal was 3990 fluorescence intensity (a.u.).

For the sequence “AAGCTCCGTCACGGACAAGTGGGCCCCATTAGCAGCTTCCCGGAGTCACCTAGTGCAG”, the binding signal was 3490 fluorescence intensity (a.u.).

“GGAGATGATGAAGCTGGCTAAGTATACCGTCGAAGAGTTCCGGAGTCACCTAGTGCAG”: the binding signal is 3310 fluorescence intensity (a.u.).

As to “CGAATTATGTAATTTGTGTATAAAGTTTGATACGGATCGACGGAGTCACCTAGTGCAG”, the binding signal was 3220 fluorescence intensity (a.u.).

With “TCGGCTGCCTTTGCGGCCGGCCCGCACGTGACGCGATCGACGGAGTCACCTAGTGCAG”, the binding signal was 3720 fluorescence intensity (a.u.).

As to “GTTCTTTGAGGCCCAAATCACACGGGCCGCCCGTTTCGTCCGGAGTCACCTAGTGCAG”, the binding signal was 33100 fluorescence intensity (a.u.).

Turning to “GTTTTAATCCCGGTTTTGTCCTACGTGGCTGCTAAATCAGCGGAGTCACCTAGTGCAG”, the binding signal was 12600 fluorescence intensity (a.u.).

With “ACACACGAGGAGATGCCGCTTTATTGTTGACATGTCATTTCGGAGTCACCTAGTGCAG”, the binding signal was 3490 fluorescence intensity (a.u.).

Take “GCGCATCTCGTCTCGTCGAAGCGAGCGAAACCACACGCGGCGGAGTCACCTAGTGCAG”: the binding signal was 4560 fluorescence intensity (a.u.).

With “TCGAATGTGCCACATCTCTTTTCTTCTCTCCTGTCTCCTTCGGAGTCACCTAGTGCAG”, the binding signal is 3900 fluorescence intensity (a.u.).

With “TCGTTTCTGGGCCGGCCCTTCTCCTATCGTACGTGGCTGGCGGAGTCACCTAGTGCAG”, the binding signal was 6410 fluorescence intensity (a.u.).

As to “TAAATTCTTTCTTAGTCATTGTTTTAAGAATGGTTGAGCCCGGAGTCACCTAGTGCAG”, the binding signal was 5030 fluorescence intensity (a.u.).
